From PubChem BioAssay AID445 (National Center for Advancing Translational Sciences (NCATS), 2006)
“And” between values parts separate entries of the source, which are not always exact repeats. Equal values may be shown once. The list shows a part of the results. Further columns of the screen follow, without active or inactive calls. The list favours compounds with an active or inconclusive main result. Words in brackets tell the shape of the fitted curve; partial curves, single points and poor fits give uncertain potencies.

Test: IkB Signaling
Conditions: ABC-DLBCL IkBa-CBG/CBR dual luciferase ratio (green luciferase fused to IkBa over red control in OCI-Ly3 lymphoma cells), 4 h
How it was run: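 Curves were fitted separately to fusion (green), unfused (red) and ratio luminescence, then classed by r2, magnitude and activity. Cells: OCI-Ly3, 4 h compound plus doxycycline at 37C; 10 uM MG-132 defined full response.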

[1] = measured here: control luc red channel unless noted

Cc1cccc(N2CCN(CCNC(=O)Nc3ccc(Cl)cc3)CC2)c1C
AC50 [1]: 15.8 µM [falling, partial curve]

COc1ccc(NC(=O)CN(c2cc(C)cc(C)c2)S(=O)(=O)c2c(C)noc2C)cc1OC
AC50 [1]: 12.6 µM [falling, partial curve]

COc1ccc(OC)c(C2CC(=O)c3c([nH]c(C(=O)OC(C)C)c3C)C2)c1 (configuration not stated)
AC50 [1]: 5.01 µM [rising, partial curve] [measured here: IkB-luc green channel]

C[C@@]12CCC(=O)C=C1CC[C@@H]1[C@@H]2[C@H](O)C[C@]2(C)[C@@H]1CC[C@]2(O)C(=O)CO
AC50 [1]: 50.1 nM [rising, full curve] [measured here: IkB-luc green channel] and 15.8 nM [rising, full curve] [measured here: IkB-luc green channel]

CCOC(=O)c1c(-c2cccs2)csc1NC(=O)CN1CC(C)OC(C)C1 (configuration not stated)
AC50 [1]: 39.8 µM [falling, single point]

CC1CCN(C(=O)c2cc(-c3ccc(Br)cc3)on2)CC1
AC50 [1]: 0.0631 µM [falling, full curve]

COc1ccccc1-c1cc(C(=O)N2CCN(c3ccccc3OC)CC2)no1
AC50 [1]: 0.501 µM [falling, full curve]

CCOc1ccc(CNS(=O)(=O)c2ccc3c(c2)CCCN3C(C)=O)cc1OC
AC50 [1]: 6.31 µM [rising, full curve]

CCOC(=O)C1CCCN(C(=O)c2nn(-c3ccc(C)cc3)c(=O)n(C)c2=O)C1 (configuration not stated)
AC50 [1]: 1.58 µM [falling, full curve, poor fit]

COc1ccc2c(c1)c(N1CCCC1=O)c(C(=O)Nc1ccccc1C(F)(F)F)n2C
AC50 [1]: 25.1 µM [falling, single point]

COc1ccc(-c2noc(N3CCC(C(=O)N4CCN(c5cccc(C)c5C)CC4)CC3)n2)cc1
AC50 [1]: 39.8 µM [falling, single point]

COc1cccc(CNC(=O)Cc2c(C(=O)O)c(C)cn2C)c1
AC50 [1]: 1.58 µM [rising, full curve, poor fit]

COc1ccc(CC(=O)NCC(c2cccs2)S(=O)(=O)c2ccc(C)cc2)cc1 (configuration not stated)
AC50 [1]: 2 µM [falling, partial curve]

CC(=O)C1=C(O)C(=O)N(CCc2c[nH]c3ccccc23)C1c1ccco1 (configuration not stated)
AC50 [1]: 39.8 µM [rising, single point] [measured here: IkB-luc green channel]

CCOC(=O)c1c(C)n(-c2ccccc2)c2ccc(OC(=O)c3cccc(OC)c3OC)cc12
AC50 [1]: 0.316 µM [rising, full curve]

CCN(CC)C(=O)c1ccc(Nc2nnc(-c3ccc(C)c(S(=O)(=O)NC)c3)c3ccccc23)cc1
AC50 [1]: 15.8 µM [falling, single point]

COc1ccc(CNC(=O)CCCN2C(=O)CSc3c2c(C)nn3-c2ccccc2)cc1
AC50 [1]: 15.8 µM [falling, single point]

Cc1cccn2c(=O)c(C(=O)NCc3ccc(F)cc3)c(O)nc12
AC50 [1]: 25.1 µM [falling, single point]

O=c1cc(-c2ccccc2)nc(SCc2nc(-c3ccccc3Cl)no2)[nH]1
AC50 [1]: 25.1 µM [falling, partial curve]

CCCOc1cccc(C(=O)Nc2cccc3cccnc23)c1
AC50 [1]: 39.8 µM [falling, single point]

COc1ccc(-c2nc3ccc(NS(=O)(=O)c4ccc(C)cc4)cc3o2)cc1
AC50 [1]: 31.6 µM [falling, partial curve]

CC(C)OCCCNC(=O)c1ccc(CSc2nc3cccnc3n2Cc2ccccc2)cc1
AC50 [1]: 31.6 µM [falling, single point]

O=C(OCc1cc(=O)n2nc(-c3cccs3)sc2n1)c1ccc(Cl)cc1
AC50 [1]: 12.6 µM [falling, partial curve]

CCC1=C(c2ccc(C)cc2)S(=O)(=O)N=C1N1CCC(C(=O)Nc2ccccc2F)CC1
AC50 [1]: 25.1 µM [falling, single point]

Cc1nc2sccn2c(=O)c1S(=O)(=O)Nc1ccc(N2CCOCC2)c(Cl)c1
AC50 [1]: 1.26 µM [falling, partial curve]

COC(=O)c1c(SCC(=O)Nc2cc(OC)cc(OC)c2)[nH]c2ccc(C)cc2c1=O
AC50 [1]: 10 µM [falling, partial curve]

CC1(C)CC(=O)C=C(NCCN2CCN(C(=O)Nc3ccc(Cl)c(Cl)c3)CC2)C1
AC50 [1]: 20 µM [falling, partial curve]

CCC1CCC(C(=O)NC(C(=O)Nc2cccc(OC)c2)C(C)C)CC1 (configuration not stated)
AC50 [1]: 0.398 µM [falling, partial curve]

CCOC(=O)C1=C(c2ccccc2)NC(SC)=C(C#N)C1c1ccco1 (configuration not stated)
AC50 [1]: 15.8 µM [falling, partial curve]

CCc1ccc(C(=O)c2cn(CC(=O)Nc3ccc4c(c3)OCO4)c3ccc(OC)cc3c2=O)cc1
AC50 [1]: 25.1 µM [falling, single point]

O=C(CSc1nnc(-c2ccccc2Br)o1)N1CCc2ccccc2C1
AC50 [1]: 25.1 µM [falling, partial curve]

CCC(NC(=O)c1ccccc1O)c1ccccc1 (configuration not stated)
AC50 [1]: 39.8 µM [falling, single point]

OC(COc1ccc2cc(Br)ccc2c1)CN1CCN(c2ccccn2)CC1 (configuration not stated)
AC50 [1]: 2 µM [falling, full curve, poor fit]

COc1ccc(Br)cc1CNC(=O)C1CCCN(S(C)(=O)=O)C1 (configuration not stated)
AC50 [1]: 0.002 µM [falling, full curve]

CNc1ncnc2c1cnn2-c1ccc(C)c(C)c1
AC50 [1]: 39.8 µM [falling, partial curve]

COc1ccc(CCNc2nc(N3CCCCC3)nc(N3CCCCC3)n2)cc1OC
AC50 [1]: 20 µM [falling, partial curve]

COc1cc(NC(=O)c2cccc3c2C(=O)N(C2CCCCC2)C3)cc(OC)c1OC
AC50 [1]: 12.6 µM [falling, partial curve]

Oc1ccccc1-c1nc(/C=C/c2ccccc2Cl)nn1-c1ccccc1
AC50 [1]: 5.01 µM [falling, partial curve]

Cc1cc(O)c2c(c1)C(=O)c1cc(O)cc(O)c1C2=O
AC50 (measured here: IkB-luc green channel): 39.8 µM [falling, single point]
AC50 (measured here: control luc red channel): 10 µM [falling, partial curve]

CCOC(=O)c1c(-c2ccccc2)oc2ccc(NS(=O)(=O)c3cc(C)c(C)cc3C)cc12
AC50 [1]: 39.8 µM [falling, partial curve, poor fit]

O=C(CN1N=C(c2ccc(Cl)cc2)CCC1=O)NCCc1ccc(Cl)cc1
AC50 [1]: 39.8 µM [falling, partial curve]

Cc1ccccc1NC(=O)c1ccc2c(c1)c(C)c(C)n2Cc1ccccc1
AC50 [1]: 3.16 µM [rising, full curve]

COc1ccc(OC)c(CNC(=O)c2ccc(Sc3ccc(C)cc3)c(N)c2)c1
AC50 [1]: 31.6 µM [falling, single point]

Cc1ccc(NC(=O)CN2C(=O)CCc3cc(S(=O)(=O)N4CCOCC4)ccc32)cc1F
AC50 [1]: 10 µM [falling, partial curve]

CCCc1nn2c(=O)cc(COC(=O)c3ccccc3NC(=O)COc3ccccc3F)nc2s1
AC50 [1]: 15.8 µM [falling, partial curve]

COc1ccc(NC(=O)c2oc3ccc(S(=O)(=O)N4CCCCC4)cc3c2C)cc1
AC50 [1]: 3.16 µM [falling, partial curve]

Cc1nc2c(C(=O)NCCCN(CC(C)C)CC(C)C)cnn2c(C)c1Cc1c(F)cccc1Cl
AC50 [1]: 31.6 µM [falling, single point]

CCCOC(=O)c1c(NC(=O)c2nc3ncccn3n2)sc(C(N)=O)c1C
AC50 [1]: 3.16 µM [rising, partial curve]

O=C1c2ccccc2NC(c2cnc3ccccc3n2)N1O (configuration not stated)
AC50 [1]: 0.794 µM [falling, partial curve]

COc1ccc(NC(=O)CSc2nc(-c3ccco3)cc(C(F)(F)F)n2)cc1OC
AC50 [1]: 3.98 µM [falling, full curve]

CCOc1ccc(N(CC)S(=O)(=O)c2cc(Br)cc3c2N(C(C)=O)C(C)C3)cc1 (configuration not stated)
AC50 [1]: 7.94 µM [falling, full curve]

COc1ccc(-c2cn(-c3ccc(C)cc3)c(S(=O)(=O)CC(=O)Nc3ccc(F)cc3)n2)cc1
AC50 [1]: 5.01 µM [falling, partial curve]

N#Cc1cc2ccccc2nc1SCc1ccccn1
AC50 [1]: 0.0794 µM [falling, full curve, poor fit]

O=C(Nc1ccc(Cl)c(Cl)c1)N1CCSC1c1ccco1 (configuration not stated)
AC50 [1]: 20 µM [falling, partial curve]

CCOc1ccc(CCNC(=O)c2cc3c(=O)oc4ccc(C)cc4c3s2)cc1OCC
AC50 [1]: 1.26 µM [rising, full curve, poor fit]

CS(=O)(=O)N(CC(O)Cn1c2ccccc2c2ccccc21)c1ccccc1 (configuration not stated)
AC50 [1]: 15.8 µM [falling, partial curve]

CCOC(=O)c1sc(=S)n(CC)c1N
AC50 [1]: 31.6 µM [rising, partial curve]

CCSc1nc2c([nH]c3ccccc32)c(=O)n1CC
AC50 [1]: 7.94 µM [rising, full curve, poor fit]

O=C(NCc1ccccc1Cl)c1cc2c(s1)-c1ccc(Cl)cc1SC2
AC50 [1]: 25.1 µM [falling, single point]

CC(=O)N1CCc2c(sc(NC(=O)CSc3ccccc3)c2-c2nc3ccccc3s2)C1
AC50 [1]: 39.8 µM [falling, single point]

CCOC(=O)CCCSc1nc2sc(C)c(C)c2c(=O)[nH]1
AC50 [1]: 0.158 µM [falling, full curve]
